PubChem BioAssay AID602196 | INSERM | 2012
Shown is an unselected part of about 23,000 deposited reagents. 455 of them (2%) were called active. 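Active includes both protection and sensitisation; some change values fall well beyond the stated -50 to +50 range.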 Not all columns of the deposit are shown. The record does not give: the amount of reagent.

- Assay: 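Knock-downs that protect lung cancer cells from cisplatin or sensitise them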
- Cell system: human A549 lung cancer cells
- Knock-down reagent: siRNA pair against human genes
- Timing: 48 h transfection before cisplatin; time from cisplatin to read-out not stated
- Challenge: cisplatin at a dose killing half of control-siRNA cells; exact dose and duration not given
- Measurement: 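Shift in cisplatin death relative to control siRNA, from -50 (all cells die) to +50 (no cells die); siRNAs harmful on their own scored 0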
- Direction: two-siRNA summed score (-2 to +2): higher = both siRNAs protect from cisplatin killing; -2 means both sensitise
- Hit rule: 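siRNAs harmful alone (LDH or WST-1) get 0; others get +1 for less and -1 for more cisplatin killing; genes are active when the two siRNAs give the same sign, summing to ±2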
- Meaning of the calls: active = both siRNAs shift cisplatin killing the same way; inactive = no consistent shift, or siRNA harmful alone

| target gene | two-siRNA summed score (-2 to +2) | Call |
| --- | --- | --- |
| LOC441604 | 1 | inactive |
| TAGLN3 | 0 | inactive |
| LOC440595 | 0 | inactive |
| RETSAT | -1 | inactive |
| PLD1 | -1 | inactive |
| G2E3 | 0 | inactive |
| TEX2 | 0 | inactive |
| PRKAG3 | 1 | inactive |
| PDPN | -1 | inactive |
| KIAA0492 | 1 | inactive |
| RSL24D1 | 0 | inactive |
| PHYHIP | 0 | inactive |
| LOC442376 | 0 | inactive |
| MEP1A | 0 | inactive |
| CDC20B | 0 | inactive |
| BMP2KL | 0 | inactive |
| ATRAID | 0 | inactive |
| ACY3 | -1 | inactive |
| CCDC34 | 0 | inactive |
| GSTT2 | 1 | inactive |
| EEF1AKMT3 | 0 | inactive |
| FABP4 | 0 | inactive |
| LOC339951 | 0 | inactive |
| H2AC25 | 0 | inactive |
| DKFZp762F0713 | 1 | inactive |
| KIAA1922 | -1 | inactive |
| TBC1D15 | 0 | inactive |
| PLAC4 | 0 | inactive |
| PRKCI | 0 | inactive |
| PTAFR | 0 | inactive |
| CCDC187 | 0 | inactive |
| CCPG1 | 0 | inactive |
| CARD19 | 0 | inactive |
| CLECL1 | 0 | inactive |
| SIM1 | 0 | inactive |
| CXCR2 | 0 | inactive |
| LOC145814 | 0 | inactive |
| PSCA | 0 | inactive |
| SDHC | 0 | inactive |
| XPC | -1 | inactive |
| TKTL2 | 0 | inactive |
| CALHM5 | 0 | inactive |
| KIAA1688 | 0 | inactive |
| CEP128 | 0 | inactive |
| ZNF419 | 0 | inactive |
| LOC389992 | 0 | inactive |
| SLC6A16 | -1 | inactive |
| FKBP4P7 | 0 | inactive |
| MFAP5 | 0 | inactive |
| FLJ20719 | 0 | inactive |
| SAA2 | -1 | inactive |
| KCNH7 | 0 | inactive |
| CDK2AP1 | 0 | inactive |
| LOC402340 | 1 | inactive |
| PEDS1 | 0 | inactive |
| PCDHB10 | 0 | inactive |
| MRPL55 | 0 | inactive |

Part of the list above, set out differently:
target gene | two-siRNA summed score (-2 to +2) | Call
CCDC34 | 0 | inactive
GSTT2 | 1 | inactive
EEF1AKMT3 | 0 | inactive
FABP4 | 0 | inactive
LOC339951 | 0 | inactive
